For the assay, the target named is T1, Flag-tagged OTUB2 overexpressed in B16-F10 cells (not stated (human or mouse cDNA cloned)) (UniProt Q9CQX0).
T1 sequence: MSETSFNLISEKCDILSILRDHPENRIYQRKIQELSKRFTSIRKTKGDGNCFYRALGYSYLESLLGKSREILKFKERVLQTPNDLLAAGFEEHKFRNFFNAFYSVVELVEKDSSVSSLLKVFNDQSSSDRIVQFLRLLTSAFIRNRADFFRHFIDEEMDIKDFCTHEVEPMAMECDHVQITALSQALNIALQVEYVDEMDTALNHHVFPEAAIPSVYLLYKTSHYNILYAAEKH
Put plainly: affinity purification with mass spectrometry; lysates of B16-F10 cells overexpressing Flag-tagged OTUB2, immunoprecipitated with anti-Flag M2 affinity gel, Flag peptide eluents analysed by mass spectrometry.

By UniProt entry, the sequences of proteins in these tests, tags left out. Residues count along the entry.
UniProt Q9EP73, residues 19-290: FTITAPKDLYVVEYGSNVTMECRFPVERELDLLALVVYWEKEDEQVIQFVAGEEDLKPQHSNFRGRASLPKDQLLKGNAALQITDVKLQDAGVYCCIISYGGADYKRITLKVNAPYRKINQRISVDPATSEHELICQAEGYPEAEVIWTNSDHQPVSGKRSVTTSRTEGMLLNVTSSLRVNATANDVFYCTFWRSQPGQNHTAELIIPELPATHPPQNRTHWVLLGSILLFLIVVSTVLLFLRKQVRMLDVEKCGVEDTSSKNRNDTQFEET

Results are given in words; binding and its absence hold for the method and conditions named. Binding seen in cells or lysates may run through a third protein. Here binding means that the protein was enriched with, or labelled near, the bait; the list need not be complete. Where a sequence is shown, tags or fusion partners need not be part of it.

Regarding “endogenous PD-L1 (B16-F10 cells) (from UniProt Q9EP73 19-290) (ligand)”, the binding result is on record as “binds”.

These data come from paper PMC10761827.
